Results are given in words; binding and its absence hold for the method and conditions named. Binding seen in cells or lysates may run through a third protein. A yes stands for co-enrichment or nearness to the bait. Other partners may have been found.
Molecular target: Dynamin-related protein 1 (human (endogenous in iPS-derived neurons, fibroblasts, postmortem brain)) (UniProt O00429)
Assay: affinity purification with mass spectrometry; 3 mg lysate (10 mM HEPES-NaOH pH 7.9, 150 mM NaCl, 1 mM EGTA, 1% Triton X-100) of neurons derived from HD patient iPS cells, IP with anti-Drp1 antibody overnight, protein A/G beads, LC-MS/MS; hits listed are found in HD and not in normal-subject cells

Chains of the proteins cited; added tags and fusions are not shown. Residues count along the entry.
UniProt O75964: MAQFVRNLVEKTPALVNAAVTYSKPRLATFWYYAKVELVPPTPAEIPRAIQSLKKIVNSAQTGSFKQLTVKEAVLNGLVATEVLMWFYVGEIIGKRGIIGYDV
UniProt P54652: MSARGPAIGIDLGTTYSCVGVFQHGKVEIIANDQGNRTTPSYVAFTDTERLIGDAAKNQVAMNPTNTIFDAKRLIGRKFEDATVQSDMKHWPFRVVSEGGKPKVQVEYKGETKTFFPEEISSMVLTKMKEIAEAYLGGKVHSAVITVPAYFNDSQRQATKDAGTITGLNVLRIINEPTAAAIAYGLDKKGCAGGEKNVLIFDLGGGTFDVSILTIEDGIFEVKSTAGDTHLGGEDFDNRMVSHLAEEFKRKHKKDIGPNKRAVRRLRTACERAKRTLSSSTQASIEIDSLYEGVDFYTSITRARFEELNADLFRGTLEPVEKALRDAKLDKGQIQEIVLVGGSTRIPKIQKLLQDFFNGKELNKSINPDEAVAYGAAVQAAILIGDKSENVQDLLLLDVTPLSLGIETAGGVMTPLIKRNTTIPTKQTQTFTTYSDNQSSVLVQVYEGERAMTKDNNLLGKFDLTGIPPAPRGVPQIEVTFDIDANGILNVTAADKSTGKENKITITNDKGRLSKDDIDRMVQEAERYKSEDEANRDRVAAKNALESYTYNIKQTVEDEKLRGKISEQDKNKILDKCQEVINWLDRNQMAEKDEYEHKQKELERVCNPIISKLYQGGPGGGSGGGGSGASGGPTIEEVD
UniProt P14618: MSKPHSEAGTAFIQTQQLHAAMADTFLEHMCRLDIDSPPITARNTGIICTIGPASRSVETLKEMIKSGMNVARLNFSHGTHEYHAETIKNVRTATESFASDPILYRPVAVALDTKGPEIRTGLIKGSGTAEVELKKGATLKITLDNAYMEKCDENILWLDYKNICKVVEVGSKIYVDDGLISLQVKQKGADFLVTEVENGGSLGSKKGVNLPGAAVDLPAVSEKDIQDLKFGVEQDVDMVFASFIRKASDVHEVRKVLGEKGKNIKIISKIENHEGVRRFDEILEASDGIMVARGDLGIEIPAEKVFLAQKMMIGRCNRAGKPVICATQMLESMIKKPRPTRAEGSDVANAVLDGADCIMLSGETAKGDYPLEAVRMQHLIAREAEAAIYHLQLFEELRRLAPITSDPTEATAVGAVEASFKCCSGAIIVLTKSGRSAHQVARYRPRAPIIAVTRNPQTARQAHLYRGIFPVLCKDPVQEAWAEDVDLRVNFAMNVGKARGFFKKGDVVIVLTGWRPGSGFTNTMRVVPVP
UniProt P38646, residues 47-679: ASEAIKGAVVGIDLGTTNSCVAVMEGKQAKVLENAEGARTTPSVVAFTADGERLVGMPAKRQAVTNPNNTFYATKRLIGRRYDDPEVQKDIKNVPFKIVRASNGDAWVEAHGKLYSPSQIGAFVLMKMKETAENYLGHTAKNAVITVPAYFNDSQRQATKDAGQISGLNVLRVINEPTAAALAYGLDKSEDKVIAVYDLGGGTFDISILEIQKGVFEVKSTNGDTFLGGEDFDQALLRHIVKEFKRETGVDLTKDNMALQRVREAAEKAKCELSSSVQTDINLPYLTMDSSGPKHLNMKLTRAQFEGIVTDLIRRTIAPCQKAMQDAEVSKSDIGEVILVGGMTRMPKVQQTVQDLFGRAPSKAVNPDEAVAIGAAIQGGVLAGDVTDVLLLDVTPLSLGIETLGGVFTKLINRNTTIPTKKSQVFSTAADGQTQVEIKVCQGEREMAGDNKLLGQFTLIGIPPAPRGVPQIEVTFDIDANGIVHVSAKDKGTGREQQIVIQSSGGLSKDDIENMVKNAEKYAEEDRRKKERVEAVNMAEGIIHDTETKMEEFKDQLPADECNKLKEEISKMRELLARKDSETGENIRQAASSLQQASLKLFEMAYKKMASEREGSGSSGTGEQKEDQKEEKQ
UniProt P34931: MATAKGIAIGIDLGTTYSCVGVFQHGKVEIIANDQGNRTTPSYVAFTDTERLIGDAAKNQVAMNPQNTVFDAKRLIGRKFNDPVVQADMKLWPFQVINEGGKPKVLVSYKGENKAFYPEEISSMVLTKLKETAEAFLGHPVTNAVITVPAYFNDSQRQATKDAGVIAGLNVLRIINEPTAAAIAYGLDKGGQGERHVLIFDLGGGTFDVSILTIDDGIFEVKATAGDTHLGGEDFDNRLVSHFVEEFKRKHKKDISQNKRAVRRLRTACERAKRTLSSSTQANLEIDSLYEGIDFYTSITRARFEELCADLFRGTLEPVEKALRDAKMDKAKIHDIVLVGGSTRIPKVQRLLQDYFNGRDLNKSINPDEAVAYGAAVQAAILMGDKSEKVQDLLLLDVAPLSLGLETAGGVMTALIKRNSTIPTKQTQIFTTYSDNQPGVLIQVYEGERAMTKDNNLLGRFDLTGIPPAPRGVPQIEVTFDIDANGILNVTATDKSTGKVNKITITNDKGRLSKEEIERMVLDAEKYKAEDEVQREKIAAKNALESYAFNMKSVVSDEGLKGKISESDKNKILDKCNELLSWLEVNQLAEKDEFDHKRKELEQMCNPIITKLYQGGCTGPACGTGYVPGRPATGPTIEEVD
UniProt P28482: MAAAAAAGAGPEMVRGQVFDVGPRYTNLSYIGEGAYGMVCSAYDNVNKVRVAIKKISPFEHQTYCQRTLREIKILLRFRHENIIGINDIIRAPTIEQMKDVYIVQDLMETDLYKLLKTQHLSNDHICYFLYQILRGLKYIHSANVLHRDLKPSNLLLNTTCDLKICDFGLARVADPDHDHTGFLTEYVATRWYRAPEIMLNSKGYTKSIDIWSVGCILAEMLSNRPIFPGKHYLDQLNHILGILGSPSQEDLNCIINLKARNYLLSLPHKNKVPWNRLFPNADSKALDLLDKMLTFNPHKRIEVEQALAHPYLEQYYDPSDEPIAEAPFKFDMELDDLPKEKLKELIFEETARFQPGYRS
UniProt Q07021, residues 74-282: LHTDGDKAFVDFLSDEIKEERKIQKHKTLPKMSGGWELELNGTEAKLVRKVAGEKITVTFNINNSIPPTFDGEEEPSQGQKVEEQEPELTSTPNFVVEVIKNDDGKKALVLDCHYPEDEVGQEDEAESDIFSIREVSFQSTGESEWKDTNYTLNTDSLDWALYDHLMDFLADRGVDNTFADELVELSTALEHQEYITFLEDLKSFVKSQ
UniProt O75947: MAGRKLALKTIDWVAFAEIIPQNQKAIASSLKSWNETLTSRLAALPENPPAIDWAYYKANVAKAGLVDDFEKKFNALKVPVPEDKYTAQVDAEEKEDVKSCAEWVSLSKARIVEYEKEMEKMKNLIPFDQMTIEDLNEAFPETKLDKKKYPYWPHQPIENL
UniProt P11182, residues 62-482: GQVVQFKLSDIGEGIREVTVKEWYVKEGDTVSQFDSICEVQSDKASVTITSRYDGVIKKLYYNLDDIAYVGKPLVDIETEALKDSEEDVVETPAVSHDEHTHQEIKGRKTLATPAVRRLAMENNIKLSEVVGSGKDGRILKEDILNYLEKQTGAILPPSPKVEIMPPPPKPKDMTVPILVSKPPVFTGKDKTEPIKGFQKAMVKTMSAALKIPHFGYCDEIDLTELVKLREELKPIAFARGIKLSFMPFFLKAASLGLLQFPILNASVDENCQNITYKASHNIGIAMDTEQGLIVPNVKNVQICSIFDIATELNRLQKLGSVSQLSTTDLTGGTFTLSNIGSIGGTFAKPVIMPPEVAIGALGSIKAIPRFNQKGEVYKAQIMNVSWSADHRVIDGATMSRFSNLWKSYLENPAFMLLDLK
UniProt P0DMV8: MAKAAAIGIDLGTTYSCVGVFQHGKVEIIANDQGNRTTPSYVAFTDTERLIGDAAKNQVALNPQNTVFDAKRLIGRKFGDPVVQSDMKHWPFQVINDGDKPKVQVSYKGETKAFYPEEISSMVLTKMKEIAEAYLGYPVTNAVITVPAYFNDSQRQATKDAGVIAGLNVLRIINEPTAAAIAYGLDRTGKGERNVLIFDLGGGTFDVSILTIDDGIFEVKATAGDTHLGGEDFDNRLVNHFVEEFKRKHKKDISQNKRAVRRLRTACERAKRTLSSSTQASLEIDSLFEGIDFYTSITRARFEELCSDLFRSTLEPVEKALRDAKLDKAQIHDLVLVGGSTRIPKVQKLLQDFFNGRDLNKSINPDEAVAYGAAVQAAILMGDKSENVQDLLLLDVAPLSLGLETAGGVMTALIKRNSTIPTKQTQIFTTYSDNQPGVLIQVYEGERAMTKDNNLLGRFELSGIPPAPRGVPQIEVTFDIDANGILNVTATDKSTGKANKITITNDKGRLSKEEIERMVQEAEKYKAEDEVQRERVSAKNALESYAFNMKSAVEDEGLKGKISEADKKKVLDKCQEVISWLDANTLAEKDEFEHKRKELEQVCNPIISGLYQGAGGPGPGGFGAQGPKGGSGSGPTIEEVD
UniProt P67775: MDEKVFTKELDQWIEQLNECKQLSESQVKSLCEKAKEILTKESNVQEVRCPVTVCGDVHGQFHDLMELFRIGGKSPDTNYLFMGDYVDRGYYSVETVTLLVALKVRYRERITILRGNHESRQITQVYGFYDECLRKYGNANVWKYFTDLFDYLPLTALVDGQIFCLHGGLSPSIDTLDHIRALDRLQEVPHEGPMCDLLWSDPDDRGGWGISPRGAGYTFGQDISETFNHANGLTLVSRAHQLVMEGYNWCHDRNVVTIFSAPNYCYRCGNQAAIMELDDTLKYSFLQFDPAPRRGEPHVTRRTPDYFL

binding	Substance
binds	ATP synthase subunit g, mitochondrial (from UniProt O75964 1-103)
binds	B-cell CLL/lymphoma 7 protein family member C (from UniProt Q8WUZ0 1-217)
binds	Heat shock-related 70 kDa protein 2 (from UniProt P54652 1-639)
binds	Pyruvate kinase isozymes M1/M2 (from UniProt P14618 1-531)
binds	Stress-70 protein, mitochondrial (from UniProt P38646 47-679)
binds	Heat shock 70 kDa protein 1-like (from UniProt P34931 1-641)
binds	Mitogen-activated protein kinase 1 (from UniProt P28482 1-360)
binds	Complement component 1 Q subcomponent-binding protein, mitochondrial (from UniProt Q07021 74-282)
binds	ATP synthase subunit d, mitochondrial (from UniProt O75947 1-161)
binds	Lipoamide acyltransferase component of branched-chain alpha-keto acid dehydrogenase complex, mitochondrial (from UniProt P11182 62-482)
binds	Heat shock 70 kDa protein 1 A/1B (from UniProt P0DMV8 1-641)
binds	Creatine kinase U-type, mitochondrial (from UniProt P12532 40-417)
binds	Serine/threonine-protein phosphatase 2 A catalytic subunit alpha isoform (from UniProt P67775 1-309)

— publication PMC6435701
